Measured values from article PMC7949123.
Results are given in words; binding and its absence hold for the method and conditions named. Some results given as binding are weak or reduced against the parent protein; the word gives no strength.

Target: PKCα catalytic domain (residues 335–672) (UniProt P17252)
Assay: FRET or BRET; intramolecular SPASM FRET sensor: both partners on one chain, joined by a 10 nm ER/K linker flanked by mCerulean/mCitrine; 25 nM protein; PKC buffer (20 mM Hepes pH 7.5, 5 mM MgCl2, 0.5 mM EGTA, 2 mM DTT); room temperature, 30 min; FRET ratio 525/475 nm; apo and with 1 μM BimI, 1 μM sotrastaurin, 1 μM staurosporine, 10 μM tetrahydrostaurosporine, 100 μM sangivamycin or 100 μM toyocamycin; both purified

binding	Substance
binds	PKCα pseudo substrate and C1a domains (residues 1–100) (from UniProt P17252 1-100) (domain or fragment)
binds	PKCα C1a domain (residues 32–100) (from UniProt P17252 32-100) (domain or fragment)
binds	PKCα regulatory domains (residues 1–293) (from UniProt P17252 1-293) (domain or fragment)
